Results from publication PMC11046306, “METTL17 is an Fe-S cluster checkpoint for mitochondrial translation” (Molecular cell, 2024).
These are yes or no findings as the source states them, for the method shown. Where a sequence is shown, tags or fusion partners need not be part of it.

Molecular target: human METTL17-8XHIS (human) (UniProt Q9H7H0)
Assay: SEC; analytical gel filtration of purified METTL17-8XHIS on Superdex 200 increase 10/300 GL; both purified

binding: no binding
B1: human METTL17-8XHIS (protein, UniProt Q9H7H0 28-456)
chain: AALVPGVTQVDNKSGFLQKRPHRQHPGILKLPHVRLPQALANGAQLLLLGSAGPTMENQVQTLTSYLWSRHLPVEPEELQRRARHLEKKFLENPDLSQTEEKLRGAVLHALRKTTYHWQELSYTEGLSLVYMAARLDGGFAAVSRAFHEIRARNPAFQPQTLMDFGSGTGSVTWAAHSIWGQSLREYMCVDRSAAMLVLAEKLLKGGSESGEPYIPGVFFRQFLPVSPKVQFDVVVSAFSLSELPSKADRTEVVQTLWRKTGHFLVLVENGTKAGHSLLMDARDLVLKGKEKSPLDPRPGFVFAPCPHELPCPQLTNLACSFSQAYHPIPFSWNKKPKEEKFSMVILARGSPEEAHRWPRITQPVLKRPRHVHCHLCCPDGHMQHAVLTARRHGRDLYRCARVSSWGDLLPVLTPSAFPPSTAQDPSES
